Drawing on PubChem BioAssay AID493014 (National Center for Advancing Translational Sciences (NCATS), 2011), this text covers AC50 for 17 molecules.

“And” between values parts separate entries of the source, which are not always exact repeats. Equal entries are not always repeated. This is one part of the list. Further columns of the screen follow, without active or inactive calls. The list favours compounds with an active or inconclusive main result. Potencies come from curve fits of mixed quality, noted in brackets.

The nature of the test: qHTS Assay to Find Inhibitors of Chronic Active B-Cell Receptor Signaling. Particulars: ABC-DLBCL IkBa-CBG/CBR reporter, luminescence ratio (green luciferase fused to IkBa over red control in TMD8 lymphoma cells), 4 h; measured here: CBR red luminescence, cell number. Summed up: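 TMD8 human ABC-DLBCL cells with doxycycline-inducible IκBα–green luciferase fusion and unfused red luciferase, in 0.5% FBS medium; compounds up to 46 uM, 4 h at 37C. Green/red luminescence ratio, filter-overlap corrected, fitted to concentration-response curves.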
(Quantitative high-throughput screening tests each substance at several concentrations.)
The AC50 is the concentration giving half of the maximal activity seen. For the molecule `O=C(NCc1ccncc1)C(=O)Nc1ccc2c(c1)OCO2`, the half-maximal activity concentration (AC50) was 5.01 µM [falling, partial curve, poor fit].

On to `CC(C)Oc1nc(-c2ccccc2Cl)nc2ccccc12`, for which the AC50 is 35.5 µM [rising, single point]. As for `CCn1c2ccccc2c2cc(NC(=O)c3ccco3)ccc21`, the half-maximal activity concentration (AC50) was 5.17 µM [rising, full curve].

Consider `COc1ccccc1C(=O)NC(=S)NNC(=O)c1sc2ccccc2c1Cl`, for which the AC50 was 23.1 µM [falling, partial curve, poor fit]. On to `CC(=O)N(Cc1ccco1)C1(C(=O)NC2CCCC2)CCCCC1`, for which the AC50 is 2.31 µM [rising, partial curve, poor fit]. As for `O=C1NC(=O)C(c2cccs2)(c2cccs2)N1`, the AC50 is 2.82 µM [rising, single point]. `CC(=O)C1=C(NC(=O)c2ccccc2F)C[C@@H]2[C@H]1C2(C)C`: the concentration at half-maximal activity (AC50) is 9.2 µM [rising, partial curve]. As for `COc1ccc(C2/C=C\CN(C(=O)Nc3ccccc3-c3ccccc3)CC(=O)N2Cc2ccc(F)cc2)cc1` (configuration not stated), the AC50 is 11.2 µM [falling, single point]. Consider `Cc1nc(NC2=NCN(Cc3ccccc3)CN2)nc2ccccc12`, for which the AC50 was 35.5 µM [falling, single point].

Take `CC(C)N(CCn1c(SCC(=O)Nc2cccnc2Cl)nc2ccccc2c1=O)C(C)C`: the AC50 was 2.31 µM [rising, partial curve, poor fit]. For the molecule `O=c1[nH]c2ccccc2c(O)c1O`, the AC50 was 20 µM [falling, partial curve, poor fit]. Turning to `CCN1C(=NCc2ccc(OC)cc2)N[C@@H](CCc2ccccc2)[C@H](C(=O)NCc2ccc(OC)cc2)[C@H]1C`, the AC50 was 35.5 µM [falling, single point] and 22.4 µM [falling, partial curve, poor fit].

As to `Cc1ccc(NC(=O)Nc2cccc(F)c2)nc1`, the AC50 is 2 µM [rising, partial curve, poor fit]. As to `Nc1nc(-c2ccc3c(c2)CCO3)cs1`, the AC50 is 5.01 µM [rising, full curve, poor fit]. As for `CC(c1ccon1)N(C)Cc1cn(Cc2ccccc2)nc1-c1ccc2c(c1)OCO2` (configuration not stated), the AC50 was 4.47 µM [falling, partial curve, poor fit]. Consider `NC(=O)CCN1CCN(CCOC2Cc3cc(Cl)ccc3Sc3ccccc32)CC1` (configuration not stated), for which the AC50 is 18.4 µM [falling, partial curve, poor fit]. Next, `C#CCOCCOCCOCCNc1nc(N2CCN(C(=O)CCCCCCCCCCNC(=O)[C@H]([C@@H](C)CC)n3cc(CCCCN=C(N)N)nn3)CC2)nc(N2CCN(C(=O)CCCCCCCCCCNC(=O)[C@H](CCCCN)n3cc(C)nn3)CC2)n1`: 10.3 µM [rising, partial curve, poor fit].
